Results: patent US10100001B2, “Adenylyl cyclase inhibitors for neuropathic and inflammatory pain” (Purdue Research Foundation, priority 2015, dated 2018)

The chains behind the UniProt entries cited, without tags or fusion partners. Where a name states a change or a piece, a line headed by the entry shows the natural chain unless it says otherwise.
UniProt Q08828: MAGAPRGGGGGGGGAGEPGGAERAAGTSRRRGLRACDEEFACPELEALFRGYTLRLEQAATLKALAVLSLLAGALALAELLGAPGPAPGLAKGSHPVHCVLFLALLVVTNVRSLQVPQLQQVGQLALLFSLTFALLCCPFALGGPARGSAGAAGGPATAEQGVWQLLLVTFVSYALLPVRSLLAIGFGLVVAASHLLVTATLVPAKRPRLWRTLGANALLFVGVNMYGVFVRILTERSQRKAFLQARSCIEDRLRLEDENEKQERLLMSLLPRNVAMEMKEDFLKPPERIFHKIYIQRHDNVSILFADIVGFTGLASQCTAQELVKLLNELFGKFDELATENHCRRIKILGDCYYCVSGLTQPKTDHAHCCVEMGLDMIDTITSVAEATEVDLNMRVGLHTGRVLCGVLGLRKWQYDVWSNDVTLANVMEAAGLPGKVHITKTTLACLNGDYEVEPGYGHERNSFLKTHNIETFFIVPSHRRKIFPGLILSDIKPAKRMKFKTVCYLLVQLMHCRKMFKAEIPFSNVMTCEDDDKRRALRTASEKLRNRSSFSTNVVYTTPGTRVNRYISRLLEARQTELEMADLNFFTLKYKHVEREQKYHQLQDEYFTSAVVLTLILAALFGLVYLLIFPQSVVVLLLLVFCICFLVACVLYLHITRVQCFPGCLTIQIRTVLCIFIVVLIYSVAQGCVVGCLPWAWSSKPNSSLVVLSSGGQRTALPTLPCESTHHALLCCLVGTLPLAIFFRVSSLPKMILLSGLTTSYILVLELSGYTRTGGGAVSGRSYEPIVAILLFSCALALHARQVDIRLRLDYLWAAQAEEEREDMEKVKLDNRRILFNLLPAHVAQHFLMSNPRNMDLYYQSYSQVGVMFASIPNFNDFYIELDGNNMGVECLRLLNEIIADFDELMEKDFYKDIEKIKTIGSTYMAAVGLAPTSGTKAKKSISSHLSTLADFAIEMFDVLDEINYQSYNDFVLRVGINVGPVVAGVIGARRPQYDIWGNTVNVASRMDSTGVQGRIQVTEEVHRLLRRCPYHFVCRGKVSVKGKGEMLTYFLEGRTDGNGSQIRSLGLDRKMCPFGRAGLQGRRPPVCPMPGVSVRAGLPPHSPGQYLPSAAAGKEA

Target: T1, AC1 (Homo sapiens, UniProt Q08828)
T1 construct: expressed in transfected cells
Experiment: Inhibition of A23187-mediated (Ca2+-stimulated) cAMP accumulation in HEK cells stably expressing AC1
Assay type: cell-based
Conditions: HEK293, read-out: AC1 Inhibition Percentage
Description: In certain aspects, the invention provides a method of treating neuropathic or inflammatory pain. Steps of the method include providing compounds of the invention as an adenylyl cyclase inhibitor. Compounds of the invention may be AC1 inhibitors. The compounds may have an IC50 in the μM range and more preferably in the nM or pM range. […] HEK cells stably expressing AC1 were treated with inhibitors for 30 min, and subsequently incubated with 3 μM A23187 in the presence of 2 mM IBMX. Data represent the average and S.E.M. of at least three independent experiments.
To determine whether compounds of the invention have an inhibitory effect on AC1 activity, HEK (human embryonic kidney) cells stably expressing AC1 (HEK-AC1) were employed and inhibition of Ca2+-stimulated cAMP accumulation was determined. A23187 is a Ca2+ ionophore, which promotes Ca2+ binding to calmodulin in the cells and, subsequent stimulation of AC1. […]
Cryopreserved HEK-AC1 cells were thawed in a 37° C. water-bath, resuspended in 10 ml optiMEM (Life Technologies, Grand Island, N.Y.) and centrifuged at 500×g for 5 min. […] Cells were then resuspended in 1 ml optiMEM and counted using a Countess automated cell counter (Life Technologies, Grand Island, N.Y.). […] Cyclic AMP accumulation was measured using Cisbio's dynamic 2 kit (Cisbio Bioassays, Bedford, Mass.) according to the manufacturer's instructions. […]

## C(=C\c1ccccc1)/CN1CCN(C(c2ccccc2)c2ccccc2)CC1 [Compound 2, 1-benzhydryl-4-cinnamylpiperazine, reference compound]
4 μM compound
  inhibition at 4 µM: 22%
40 μM compound
  inhibition at 40 µM: 89%
